Results on one substance are retold here after article PMC11501035.

The chains behind the UniProt entries cited, without tags or fusion partners. Where a name states a change or a piece, a line headed by the entry shows the natural chain unless it says otherwise. A line that says so, or that is headed by a name, gives the form on record, which may keep a tag or linker.
sarcoplasmic/endoplasmic reticulum (SER) Ca2+ ATPase 2a (O55143-2, form named): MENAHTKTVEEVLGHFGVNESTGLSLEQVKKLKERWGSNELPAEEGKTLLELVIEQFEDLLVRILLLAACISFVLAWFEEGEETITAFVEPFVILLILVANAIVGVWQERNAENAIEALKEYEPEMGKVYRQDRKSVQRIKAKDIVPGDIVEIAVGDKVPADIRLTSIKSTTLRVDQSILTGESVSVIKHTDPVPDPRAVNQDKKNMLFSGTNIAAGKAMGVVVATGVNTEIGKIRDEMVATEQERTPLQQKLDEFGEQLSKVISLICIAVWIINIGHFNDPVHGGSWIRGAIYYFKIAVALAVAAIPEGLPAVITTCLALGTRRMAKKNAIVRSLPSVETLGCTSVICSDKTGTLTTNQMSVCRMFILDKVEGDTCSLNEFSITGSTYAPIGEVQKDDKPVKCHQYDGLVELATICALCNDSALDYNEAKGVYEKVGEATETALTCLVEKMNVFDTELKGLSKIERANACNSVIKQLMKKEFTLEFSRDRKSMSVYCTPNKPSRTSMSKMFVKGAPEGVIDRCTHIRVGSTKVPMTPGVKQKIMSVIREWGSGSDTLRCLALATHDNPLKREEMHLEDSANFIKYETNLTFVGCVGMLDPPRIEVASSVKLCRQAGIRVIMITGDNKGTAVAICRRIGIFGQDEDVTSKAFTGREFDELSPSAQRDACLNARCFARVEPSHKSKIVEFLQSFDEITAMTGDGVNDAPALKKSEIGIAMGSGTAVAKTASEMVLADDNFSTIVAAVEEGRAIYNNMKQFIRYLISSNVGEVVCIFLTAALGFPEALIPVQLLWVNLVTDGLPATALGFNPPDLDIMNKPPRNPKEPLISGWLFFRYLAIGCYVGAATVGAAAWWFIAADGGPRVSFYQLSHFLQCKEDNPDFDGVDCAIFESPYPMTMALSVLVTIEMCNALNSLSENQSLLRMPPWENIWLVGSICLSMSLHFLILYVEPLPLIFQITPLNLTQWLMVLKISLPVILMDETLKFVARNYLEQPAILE

The assay has as its target T1, Phospholamban (mouse (endogenous in left-ventricular tissue)) (UniProt P61014).
T1 sequence: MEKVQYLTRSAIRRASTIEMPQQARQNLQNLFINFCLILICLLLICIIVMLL
In words: complexome profiling (SEC fractionation with DIA-MS of each fraction); Cohort #1: membrane fractions of left-ventricular tissue of one 28wk-old WT and one R14Δ/+ mouse, solubilised in C12E8 (0.5 mg/mg protein); Bio-SEC-5 1000 Å column, on ice, 5 mM Tris-HCl, 1 mM EDTA, 150 mM KCl, 0.005 mg/ml C12E8, pH 7; 89 fractions; co-elution of proteins in high-MW fractions.

These are yes or no findings as the source states them, for the method shown. Some results given as binding are weak or reduced against the parent protein; the word gives no strength.

Take “sarcoplasmic/endoplasmic reticulum (SER) Ca2+ ATPase 2a (from UniProt O55143-2 1-998)”: the binding entry is “binds”.
